Data taken from the supplement of paper PMC10849652.
Some of the results follow.

By UniProt entry, the sequences of proteins in these tests, tags left out. Where a name states a change or a piece, a line headed by the entry shows the natural chain unless it says otherwise.
UniProt Q7Z6J9: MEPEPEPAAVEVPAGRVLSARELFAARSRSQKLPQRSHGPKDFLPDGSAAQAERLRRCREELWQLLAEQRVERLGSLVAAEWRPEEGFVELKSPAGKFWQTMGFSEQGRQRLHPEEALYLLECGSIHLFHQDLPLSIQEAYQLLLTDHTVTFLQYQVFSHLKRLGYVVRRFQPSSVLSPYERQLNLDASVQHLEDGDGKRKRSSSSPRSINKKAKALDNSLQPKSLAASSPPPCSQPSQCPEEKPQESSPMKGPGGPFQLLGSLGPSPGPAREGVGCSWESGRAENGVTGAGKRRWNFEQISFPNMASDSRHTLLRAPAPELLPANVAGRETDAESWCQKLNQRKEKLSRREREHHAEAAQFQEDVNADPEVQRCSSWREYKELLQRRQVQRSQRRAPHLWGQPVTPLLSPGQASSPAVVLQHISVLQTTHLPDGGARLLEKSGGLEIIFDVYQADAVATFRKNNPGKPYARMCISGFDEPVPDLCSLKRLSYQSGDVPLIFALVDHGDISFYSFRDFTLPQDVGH
UniProt O95801: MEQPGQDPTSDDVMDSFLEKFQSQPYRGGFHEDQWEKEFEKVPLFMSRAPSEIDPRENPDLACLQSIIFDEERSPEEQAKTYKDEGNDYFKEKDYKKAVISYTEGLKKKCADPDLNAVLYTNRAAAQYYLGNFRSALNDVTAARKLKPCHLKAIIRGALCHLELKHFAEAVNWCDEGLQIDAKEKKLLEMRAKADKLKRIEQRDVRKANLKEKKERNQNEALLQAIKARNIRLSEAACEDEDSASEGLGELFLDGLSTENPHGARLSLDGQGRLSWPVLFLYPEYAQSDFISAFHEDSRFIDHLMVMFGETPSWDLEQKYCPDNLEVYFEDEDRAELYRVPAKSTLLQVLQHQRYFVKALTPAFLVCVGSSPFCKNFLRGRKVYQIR
UniProt Q15629: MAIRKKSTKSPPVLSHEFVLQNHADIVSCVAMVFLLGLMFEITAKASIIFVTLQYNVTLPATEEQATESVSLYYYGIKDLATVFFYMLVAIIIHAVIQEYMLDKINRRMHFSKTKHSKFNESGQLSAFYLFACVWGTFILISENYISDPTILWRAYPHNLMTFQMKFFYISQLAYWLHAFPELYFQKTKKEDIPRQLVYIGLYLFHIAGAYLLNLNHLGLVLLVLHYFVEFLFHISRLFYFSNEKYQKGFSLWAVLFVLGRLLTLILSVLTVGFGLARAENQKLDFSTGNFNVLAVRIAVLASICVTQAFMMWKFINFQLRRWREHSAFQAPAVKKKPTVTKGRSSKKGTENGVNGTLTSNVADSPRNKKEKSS
UniProt Q15642: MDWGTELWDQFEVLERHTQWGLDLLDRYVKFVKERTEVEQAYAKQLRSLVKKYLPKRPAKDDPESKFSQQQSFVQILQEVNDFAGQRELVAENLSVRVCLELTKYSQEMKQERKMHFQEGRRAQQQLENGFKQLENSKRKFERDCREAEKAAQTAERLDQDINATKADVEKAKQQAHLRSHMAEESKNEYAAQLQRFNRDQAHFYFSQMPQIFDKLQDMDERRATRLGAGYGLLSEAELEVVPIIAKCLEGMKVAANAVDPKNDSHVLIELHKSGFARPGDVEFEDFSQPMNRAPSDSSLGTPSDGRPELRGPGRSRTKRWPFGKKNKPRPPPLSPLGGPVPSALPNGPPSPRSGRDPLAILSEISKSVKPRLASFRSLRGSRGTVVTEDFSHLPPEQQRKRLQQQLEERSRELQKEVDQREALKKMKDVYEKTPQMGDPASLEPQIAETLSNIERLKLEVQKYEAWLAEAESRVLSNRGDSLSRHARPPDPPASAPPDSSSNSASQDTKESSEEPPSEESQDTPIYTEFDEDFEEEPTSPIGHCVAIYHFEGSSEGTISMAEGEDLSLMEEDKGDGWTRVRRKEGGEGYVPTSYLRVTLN
UniProt Q9UL33, whole entry, looked up: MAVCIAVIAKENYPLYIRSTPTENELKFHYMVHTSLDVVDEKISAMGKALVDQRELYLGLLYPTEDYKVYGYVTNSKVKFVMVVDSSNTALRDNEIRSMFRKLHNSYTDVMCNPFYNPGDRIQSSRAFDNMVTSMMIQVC
UniProt P30536, whole entry, looked up: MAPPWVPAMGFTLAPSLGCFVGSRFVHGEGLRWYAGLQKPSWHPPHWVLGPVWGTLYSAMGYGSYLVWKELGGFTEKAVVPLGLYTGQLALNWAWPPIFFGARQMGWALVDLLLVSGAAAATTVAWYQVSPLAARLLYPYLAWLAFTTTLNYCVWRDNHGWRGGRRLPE
UniProt Q7Z392: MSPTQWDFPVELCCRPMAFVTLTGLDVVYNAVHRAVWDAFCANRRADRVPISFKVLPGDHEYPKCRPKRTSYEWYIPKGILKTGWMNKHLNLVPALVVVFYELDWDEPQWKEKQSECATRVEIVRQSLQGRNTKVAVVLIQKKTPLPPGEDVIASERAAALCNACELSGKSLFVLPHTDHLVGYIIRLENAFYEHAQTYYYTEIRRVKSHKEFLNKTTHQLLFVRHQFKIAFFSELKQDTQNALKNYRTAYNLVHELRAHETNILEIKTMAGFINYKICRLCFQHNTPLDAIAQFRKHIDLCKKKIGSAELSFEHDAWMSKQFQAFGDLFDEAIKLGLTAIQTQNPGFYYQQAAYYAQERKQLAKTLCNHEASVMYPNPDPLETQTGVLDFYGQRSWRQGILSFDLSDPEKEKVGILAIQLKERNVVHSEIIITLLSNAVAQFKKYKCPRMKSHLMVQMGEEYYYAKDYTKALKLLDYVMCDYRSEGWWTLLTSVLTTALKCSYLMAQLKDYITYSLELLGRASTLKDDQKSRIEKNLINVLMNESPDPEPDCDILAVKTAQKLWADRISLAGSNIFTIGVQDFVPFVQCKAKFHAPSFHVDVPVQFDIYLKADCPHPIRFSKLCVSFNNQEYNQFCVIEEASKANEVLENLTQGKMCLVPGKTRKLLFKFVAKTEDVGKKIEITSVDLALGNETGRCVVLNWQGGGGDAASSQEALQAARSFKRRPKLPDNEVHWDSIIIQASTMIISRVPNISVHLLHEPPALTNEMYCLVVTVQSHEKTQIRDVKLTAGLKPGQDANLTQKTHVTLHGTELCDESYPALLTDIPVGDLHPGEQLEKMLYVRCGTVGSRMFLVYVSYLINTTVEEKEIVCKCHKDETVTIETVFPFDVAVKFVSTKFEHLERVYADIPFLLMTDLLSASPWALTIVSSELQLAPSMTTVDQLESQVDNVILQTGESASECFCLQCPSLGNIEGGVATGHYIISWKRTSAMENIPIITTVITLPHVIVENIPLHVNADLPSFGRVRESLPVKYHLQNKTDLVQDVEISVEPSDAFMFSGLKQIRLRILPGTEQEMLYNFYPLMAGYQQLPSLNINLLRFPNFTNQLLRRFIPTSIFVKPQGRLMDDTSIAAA
UniProt Q96Q11: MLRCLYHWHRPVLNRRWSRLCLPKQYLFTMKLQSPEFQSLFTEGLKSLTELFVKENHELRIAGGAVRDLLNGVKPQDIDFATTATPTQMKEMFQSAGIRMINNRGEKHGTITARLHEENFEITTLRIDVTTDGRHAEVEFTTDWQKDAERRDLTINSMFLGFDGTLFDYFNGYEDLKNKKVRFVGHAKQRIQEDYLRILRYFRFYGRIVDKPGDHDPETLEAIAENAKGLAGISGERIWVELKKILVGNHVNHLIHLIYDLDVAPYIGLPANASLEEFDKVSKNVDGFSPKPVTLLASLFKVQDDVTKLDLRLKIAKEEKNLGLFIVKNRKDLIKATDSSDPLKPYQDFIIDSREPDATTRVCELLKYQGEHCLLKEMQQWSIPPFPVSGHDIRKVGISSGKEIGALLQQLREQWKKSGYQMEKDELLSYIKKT
UniProt O95857: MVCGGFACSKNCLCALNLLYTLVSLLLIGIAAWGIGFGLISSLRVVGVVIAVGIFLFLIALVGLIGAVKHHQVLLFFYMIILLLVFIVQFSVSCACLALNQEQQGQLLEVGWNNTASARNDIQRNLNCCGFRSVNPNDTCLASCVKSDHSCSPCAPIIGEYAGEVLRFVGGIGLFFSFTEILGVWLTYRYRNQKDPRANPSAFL
UniProt Q14258, whole entry, looked up: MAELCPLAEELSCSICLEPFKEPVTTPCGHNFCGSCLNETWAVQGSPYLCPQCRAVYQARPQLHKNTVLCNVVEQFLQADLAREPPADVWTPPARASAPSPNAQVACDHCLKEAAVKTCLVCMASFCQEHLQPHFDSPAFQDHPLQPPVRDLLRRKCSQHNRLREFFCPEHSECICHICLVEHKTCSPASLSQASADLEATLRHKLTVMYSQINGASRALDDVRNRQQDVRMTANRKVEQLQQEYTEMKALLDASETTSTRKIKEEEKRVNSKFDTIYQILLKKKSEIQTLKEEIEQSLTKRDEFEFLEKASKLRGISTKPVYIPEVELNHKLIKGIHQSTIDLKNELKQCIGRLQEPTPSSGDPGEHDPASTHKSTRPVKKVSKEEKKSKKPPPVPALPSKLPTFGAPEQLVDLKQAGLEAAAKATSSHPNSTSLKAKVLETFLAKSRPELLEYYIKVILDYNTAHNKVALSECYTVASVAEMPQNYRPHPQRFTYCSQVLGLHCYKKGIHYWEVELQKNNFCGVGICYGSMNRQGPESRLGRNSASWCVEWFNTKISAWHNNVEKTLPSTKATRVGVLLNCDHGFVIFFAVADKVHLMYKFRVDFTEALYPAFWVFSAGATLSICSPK
UniProt Q8TEL6: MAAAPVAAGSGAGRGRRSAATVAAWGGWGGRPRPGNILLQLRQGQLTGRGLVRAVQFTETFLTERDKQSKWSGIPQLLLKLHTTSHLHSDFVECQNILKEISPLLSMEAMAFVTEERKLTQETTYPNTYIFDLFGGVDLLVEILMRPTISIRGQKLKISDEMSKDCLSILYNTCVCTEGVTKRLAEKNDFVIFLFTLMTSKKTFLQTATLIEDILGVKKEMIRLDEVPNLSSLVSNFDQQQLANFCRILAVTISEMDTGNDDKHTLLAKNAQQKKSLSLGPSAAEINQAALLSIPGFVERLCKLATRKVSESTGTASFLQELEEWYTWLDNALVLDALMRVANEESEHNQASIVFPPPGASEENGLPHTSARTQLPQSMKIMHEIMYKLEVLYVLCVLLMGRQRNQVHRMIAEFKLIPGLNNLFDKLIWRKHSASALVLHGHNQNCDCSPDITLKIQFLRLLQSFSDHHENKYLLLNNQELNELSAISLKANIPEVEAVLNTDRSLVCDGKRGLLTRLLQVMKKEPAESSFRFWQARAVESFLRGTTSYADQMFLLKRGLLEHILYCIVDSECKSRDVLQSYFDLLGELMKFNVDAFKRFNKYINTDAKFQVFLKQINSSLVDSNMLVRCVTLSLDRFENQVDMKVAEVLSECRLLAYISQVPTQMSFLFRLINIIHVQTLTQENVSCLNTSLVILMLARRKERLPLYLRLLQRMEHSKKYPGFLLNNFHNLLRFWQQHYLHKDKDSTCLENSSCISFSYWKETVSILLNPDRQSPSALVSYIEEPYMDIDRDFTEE
UniProt Q96F44: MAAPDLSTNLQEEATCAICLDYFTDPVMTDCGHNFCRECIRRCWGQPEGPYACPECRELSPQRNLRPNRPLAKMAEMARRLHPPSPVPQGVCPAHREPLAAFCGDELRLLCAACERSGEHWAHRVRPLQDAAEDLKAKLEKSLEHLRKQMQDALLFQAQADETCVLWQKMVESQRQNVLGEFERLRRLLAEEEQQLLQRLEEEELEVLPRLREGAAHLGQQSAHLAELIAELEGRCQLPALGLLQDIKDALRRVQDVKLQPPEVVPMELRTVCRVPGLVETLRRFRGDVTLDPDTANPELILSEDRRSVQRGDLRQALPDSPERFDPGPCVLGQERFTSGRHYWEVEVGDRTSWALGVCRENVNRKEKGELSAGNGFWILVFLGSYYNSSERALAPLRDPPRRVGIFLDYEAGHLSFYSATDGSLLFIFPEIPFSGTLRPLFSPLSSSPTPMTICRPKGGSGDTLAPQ
UniProt Q15645: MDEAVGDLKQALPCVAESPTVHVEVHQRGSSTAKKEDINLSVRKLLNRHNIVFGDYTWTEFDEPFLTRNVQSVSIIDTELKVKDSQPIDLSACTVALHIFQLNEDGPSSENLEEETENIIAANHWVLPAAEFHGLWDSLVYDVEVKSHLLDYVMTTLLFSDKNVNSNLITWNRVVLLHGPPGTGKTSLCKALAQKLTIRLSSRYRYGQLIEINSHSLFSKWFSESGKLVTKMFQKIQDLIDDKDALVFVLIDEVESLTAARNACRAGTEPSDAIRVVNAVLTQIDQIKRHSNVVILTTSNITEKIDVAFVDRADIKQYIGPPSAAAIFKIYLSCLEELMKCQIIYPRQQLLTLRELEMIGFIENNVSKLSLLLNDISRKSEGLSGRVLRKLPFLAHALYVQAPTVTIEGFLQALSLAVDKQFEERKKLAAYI
UniProt Q969E8: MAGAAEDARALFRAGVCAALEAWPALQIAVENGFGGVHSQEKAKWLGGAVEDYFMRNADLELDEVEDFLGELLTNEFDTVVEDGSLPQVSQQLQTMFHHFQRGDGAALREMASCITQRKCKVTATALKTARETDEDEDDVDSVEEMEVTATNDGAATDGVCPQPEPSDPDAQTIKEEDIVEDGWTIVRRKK

compound: C=CC(=O)N1CCC[C@@H](n2nc(-c3ccc(Oc4ccccc4)cc3)c3c(N)ncnc32)C1 [ibrutinib]; assay: log2 fold change, soluble protein after heating vs DMSO (PISA); higher = thermal stabilisation; K562 lysate, 10 uM; active = over 0.2 and 3.5 SD of the protein, either way, in both replicates (recomputed)
Method in brief: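 Thermal stability, expressed as log-two fold change relative to solvent controls, is given from duplicates. Crude K562 extract in PBS pH 7.4 with 1 mM MgCl2, at 1 mg/mL protein, was treated with 10 μM compound for 30 min and heated in aliquots for 3 min across 48°C-58°C. After pooling, adjustment to 0.5% NP-40 at 4°C and centrifugation at 21,000xg for 90 min, supernatant protein was measured by TMTpro 16plex LC-MS/MS with channel sums equalised.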

log2 fold change, inactive:
TRRAP (UniProt Q9Y4A5) -0.031, TSEN54 (UniProt Q7Z6J9) 0.075, TRAPPC2 isoform 3 (UniProt P0DI81) 0.029, TSC2 isoform 4 (UniProt P49815) -0.085, TRAPPC6A isoform 2 (UniProt O75865) -0.023, TRMT11 (UniProt Q7Z4G4) 0.017, TTC4 (UniProt O95801) 0.002, TRAM1 (UniProt Q15629) -0.042, TRIP10 isoform 2 (UniProt Q15642) -0.085, TRMT61A (UniProt Q96FX7) 0.028, TRAPPC2L (UniProt Q9UL33) 0, TTC12 isoform 2 (UniProt Q9H892) -0.002, TSPO (UniProt P30536) 0.033, TTC5 (UniProt Q8N0Z6) 0.019, TRIM32 (UniProt Q13049) 0.036, TRAPPC11 (UniProt Q7Z392) 0.019, TSC1 (UniProt Q92574) 0.076, TRIM33 isoform 2 (UniProt Q9UPN9) 0.04, TRNT1 (UniProt Q96Q11) 0.008, TRMT61B (UniProt Q9BVS5) 0.006, TRIM5 (UniProt Q9C035) -0.022, TSPAN13 (UniProt O95857) 0.018, TRIM25 (UniProt Q14258) -0.001, TRPC4AP (UniProt Q8TEL6) -0.074, TSC22D2 (UniProt O75157) 0.106, TRIM11 (UniProt Q96F44) 0.008, TSNAX (UniProt Q99598) 0.014, TRAPPC13 isoform 4 (UniProt A5PLN9) -0.002, TRIP13 (UniProt Q15645) -0.025, TSR2 (UniProt Q969E8) 0.011, TRMT5 (UniProt Q32P41) 0.017, TTC9C (UniProt Q8N5M4) 0.039, TRAF6 (UniProt Q9Y4K3) 0.03
